Here are results for 27 compounds from the supplement of paper PMC12542422.

Where a name gives a salt, the structure may show the parent alone. ± gives the standard deviation of the averaged measurements. The list shows a part of the results. These are raw signals, not scaled to a control.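 Across three biological replicates, HeLa cells were imaged for ribosome assembly using ENP1 staining (export block present or absent) or inducible tagged ribosomal protein reporters. Machine learning classified each cell's signal localization relative to DMSO controls. Hits exceeded the DMSO false-positive mean by five standard deviations and were then visually confirmed.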

The subject of assay [1] is HeLa K (ENP1 immunofluorescence, +LMB). Kind of assay: fraction of cells with nucleolar or nucleolar/nucleoplasmic ENP1 signal (MainHitrate); higher = more cells with nucleolar/nuclear readout signal (for ENP1 -LMB: less RNAPI inhibition; for +LMB ENP1 and RP reporters: stronger nuclear/nucleolar retention, i.e. ribosome biogenesis defect). Conditions: concentration: 1 µM; treatment time: 6 h; ENP1 +LMB; leptomycin B: 20 nM, last 1.5 h.

For assay [2], the system named is HeLa K (ENP1 immunofluorescence, no LMB). The assay is described as above. The following applies: concentration: 1 µM; treatment time: 6 h; ENP1 -LMB; leptomycin B: none.
The next assay has as its system HeLa RPS2-YFP reporter. Kind of assay: fraction of reporter-positive cells with nuclear (nucleolar or nucleolar/nucleoplasmic) RPS2-YFP (MainHitrate); higher = more cells with nucleolar/nuclear readout signal (for ENP1 -LMB: less RNAPI inhibition; for +LMB ENP1 and RP reporters: stronger nuclear/nucleolar retention, i.e. ribosome biogenesis defect). Conditions: concentration: 1 µM; treatment time: 6 h.

In a further assay the test system is HeLa RPL29-GFP reporter. Kind of assay: fraction of reporter-positive cells with nuclear (nucleolar or nucleolar/nucleoplasmic) RPL29-GFP (MainHitrate); higher = more cells with nucleolar/nuclear readout signal (for ENP1 -LMB: less RNAPI inhibition; for +LMB ENP1 and RP reporters: stronger nuclear/nucleolar retention, i.e. ribosome biogenesis defect). The following applies: concentration: 1 µM; treatment time: 6 h.

On to `C=C[C@H]1CN2CC[C@H]1C[C@H]2[C@H](O)c1ccnc2ccc(OC)cc12` [Quinine hydrochloride dihydrate], for which the figures for the fraction in assay [1] and in assay [2] were 0.0954 ± 0.11 and 0.9946 ± 0.0094, respectively. Also, the “fraction of reporter-positive cells with nuclear” value (“fraction … with nuclear” for short) in the assay on HeLa RPS2-YFP reporter worked out at 0.106 ± 0.089; in the assay on HeLa RPL29-GFP reporter, 0.23 ± 0.058.
Consider `Cn1ccnc1S` [Methimazole (Tapazole, Northyx)], for which the fraction was 0.0754 ± 0.088 in assay [1] and 0.9977 ± 0.004 in assay [2]. In addition, the “fraction … with nuclear” value was 0.104 ± 0.063 in the assay on HeLa RPS2-YFP reporter and 0.209 ± 0.067 in the assay on HeLa RPL29-GFP reporter.
On the same counts, the results for `Nc1[nH]cnc2ncnc1-2` [Adenine sulfate] are 0.105 ± 0.14, 0.993 ± 0.012, 0.139 ± 0.069 and 0.239 ± 0.11.
`CC1=C(C(=O)O)N2C(=O)[C@@H](NC(=O)[C@H](N)c3ccccc3)[C@H]2SC1` [Cephalexin (Cefalexin)]: the results for the fraction in assay [1] and in assay [2] were 0.0969 ± 0.087 and 0.998 ± 0.0034, respectively. Moreover, the figures for the “fraction … with nuclear” value in the assay with HeLa RPS2-YFP reporter and with HeLa RPL29-GFP reporter were 0.106 ± 0.075 and 0.228 ± 0.076, respectively.
`CC[C@H]1OC(=O)C[C@@H](O)[C@H](C)[C@@H](O[C@@H]2O[C@H](C)[C@@H](O)[C@H](N(C)C)[C@H]2O)[C@@H](CCN2C[C@H](C)C[C@H](C)C2)C[C@@H](C)C(=O)/C=C/C(C)=C/[C@@H]1CO[C@@H]1O[C@H](C)[C@@H](O)[C@@H](OC)[C@H]1OC` [Tilmicosin]: the fraction in assay [1] was 0.0842 ± 0.11; in assay [2], 0.99 ± 0.017. Moreover, the “fraction … with nuclear” value in the assay with HeLa RPS2-YFP reporter stood at 0.142 ± 0.084; in the assay on HeLa RPL29-GFP reporter, 0.213 ± 0.045.
The matching figures for `N=C(N)N/N=C/c1c(Cl)cccc1Cl` [Guanabenz acetate]: 0.0671 ± 0.087, 0.979 ± 0.036, 0.123 ± 0.082 and 0.221 ± 0.1.
On the same counts, the results for `Clc1ccc(C(Cn2ccnc2)OCc2ccsc2Cl)c(Cl)c1` (stereo not drawn) [Tioconazole] are 0.0969 ± 0.14, 0.992 ± 0.013, 0.125 ± 0.084 and 0.211 ± 0.076.
On to `C[C@]12CC[C@@H]3c4ccc(O)cc4CC[C@H]3[C@@H]1CC[C@@H]2O` [Estradiol], for which the results for the fraction in assay [1] and in assay [2] were 0.0451 ± 0.022 and 0.9986 ± 0.0024, respectively. Besides, the “fraction … with nuclear” value is 0.146 ± 0.11 in the assay with HeLa RPS2-YFP reporter and 0.214 ± 0.072 in the assay with HeLa RPL29-GFP reporter.
On the same counts, the results for `C[C@@H](Oc1cc(-c2cnn(C3CCNCC3)c2)cnc1N)c1c(Cl)ccc(F)c1Cl` are 0.094 ± 0.038, 0.9976 ± 0.0042, 0.0789 ± 0.053 and 0.244 ± 0.061.
On the same counts, the results for `CC(C)NCC(O)COc1ccc(CCOCC2CC2)cc1` (stereo not drawn) [Betaxolol hydrochloride (Betoptic)] are 0.0599 ± 0.076, 0.993 ± 0.012, 0.102 ± 0.06 and 0.244 ± 0.087.
The matching figures for `COC(=O)C1=C(C)NC(C)=C(C(=O)OCCN2CCN(C(c3ccccc3)c3ccccc3)CC2)C1c1cccc([N+](=O)[O-])c1` (stereo not drawn) [Manidipine (Manyper)]: 0.139 ± 0.2, 0.99 ± 0.017, 0.116 ± 0.11 and 0.244 ± 0.076.
With `CCCCc1ncc(/C=C(\Cc2cccs2)C(=O)O)n1Cc1ccc(C(=O)O)cc1` [Eprosartan Mesylate], the fraction in assay [1] is 0.0594 ± 0.067; in assay [2], 0.985 ± 0.026. In addition, the “fraction … with nuclear” value amounted to 0.117 ± 0.098 in the assay with HeLa RPS2-YFP reporter and 0.204 ± 0.088 in the assay on HeLa RPL29-GFP reporter.
Regarding `CC(C)c1nc(CN(C)C(=O)N[C@H](C(=O)N[C@@H](Cc2ccccc2)C[C@H](O)[C@H](Cc2ccccc2)NC(=O)OCc2cncs2)C(C)C)cs1` [Ritonavir], the fraction turned out to be 0.0677 ± 0.035 in assay [1] and 0.9969 ± 0.0054 in assay [2]. Moreover, the “fraction … with nuclear” value came out at 0.105 ± 0.067 in the assay on HeLa RPS2-YFP reporter and 0.254 ± 0.1 in the assay with HeLa RPL29-GFP reporter.
On the same counts, the results for `OC[C@H]1OC(O)[C@H](O)[C@@H](O)[C@@H]1O` (stereo partly drawn) [Dextrose (D-glucose)] are 0.137 ± 0.19, 0.991 ± 0.015, 0.0978 ± 0.091 and 0.205 ± 0.11.
On the same counts, the results for `CCN[C@@H]1C[C@H](N)[C@@H](O[C@H]2OC(CN)=CC[C@H]2N)[C@H](O)[C@H]1O[C@H]1OC[C@](C)(O)[C@H](NC)[C@H]1O` [Netilmicin Sulfate] are 0.0812 ± 0.096, 0.978 ± 0.037, 0.134 ± 0.12 and 0.219 ± 0.054.
As for `CCCNC(=O)NS(=O)(=O)c1ccc(Cl)cc1` [Chlorpropamide], the fraction in assay [1] is 0.0777 ± 0.1; in assay [2], 0.976 ± 0.041. Further, the “fraction … with nuclear” value worked out at 0.115 ± 0.12 with HeLa RPS2-YFP reporter and 0.298 ± 0.15 with HeLa RPL29-GFP reporter.
On the same counts, the results for `COc1cc(NS(=O)(=O)c2ccc(N)cc2)nc(OC)n1` [Sulphadimethoxine] are 0.0507 ± 0.068, 0.9948 ± 0.009, 0.0704 ± 0.03 and 0.219 ± 0.033.
On the same counts, the results for `CN1CCC(OC(c2ccccc2)c2ccccc2)CC1` [Diphenylpyraline HCl] are 0.0862 ± 0.09, 0.9991 ± 0.0016, 0.155 ± 0.15 and 0.275 ± 0.25.
On the same counts, the results for `CCOC(=O)n1ccn(C)c1=S` [Carbimazole] are 0.0604 ± 0.072, 0.9947 ± 0.0091, 0.103 ± 0.1 and 0.205 ± 0.075.
On to `CCOc1ccc2nc3cc(N)ccc3c(N)c2c1` [Ethacridine lactate monohydrate], for which the fraction came out at 0.0597 ± 0.08 in assay [1] and 0.992 ± 0.014 in assay [2]. Moreover, the “fraction … with nuclear” value in the assay with HeLa RPS2-YFP reporter was found to be 0.124 ± 0.12; in the assay on HeLa RPL29-GFP reporter, 0.208 ± 0.057.
The matching figures for `Cn1c([N+](=O)[O-])cnc1COC(N)=O` [Ronidazole]: 0.0904 ± 0.12, 0.972 ± 0.048, 0.124 ± 0.11 and 0.231 ± 0.064.
On the same counts, the results for `O=C(O)CCNC(=O)c1ccccc1` [Betamipron] are 0.0865 ± 0.12, 0.986 ± 0.024, 0.119 ± 0.1 and 0.216 ± 0.046.
The matching figures for `CC(C(=O)O)c1cccc(Oc2ccccc2)c1` (stereo not drawn) [Fenoprofen calcium]: 0.0554 ± 0.07, 0.9943 ± 0.0099, 0.0933 ± 0.077 and 0.22 ± 0.083.
On to `C[N+]1(C)CCC(=C(c2ccccc2)c2ccccc2)CC1` [Diphemanil methylsulfate], for which the fraction in assay [1] turned out to be 0.0618 ± 0.059; in assay [2], 0.994 ± 0.01. In addition, the “fraction … with nuclear” value stood at 0.12 ± 0.11 with HeLa RPS2-YFP reporter and 0.198 ± 0.065 with HeLa RPL29-GFP reporter.
On the same counts, the results for `COc1ccc(CN(CCN(C)C)c2ccccn2)cc1` [Pyrilamine Maleate] are 0.23 ± 0.32, 0.995 ± 0.0087, 0.202 ± 0.15 and 0.298 ± 0.2.
The matching figures for `CCCc1nc(C)c2c(=O)nc(-c3cc(S(=O)(=O)N4CCN(CC)CC4)ccc3OCC)[nH]n12` [Vardenafil (Vivanza)]: 0.0772 ± 0.1, 0.9959 ± 0.0071, 0.0553 ± 0.043 and 0.21 ± 0.071.
On the same counts, the results for `Cc1ncc(CO)c(CO)c1O` [Pyridoxine hydrochloride] are 0.0459 ± 0.061, 0.989 ± 0.018, 0.0673 ± 0.052 and 0.219 ± 0.02.
